One substance from publication PMC4495292 can be followed below.

Results are given in words; binding and its absence hold for the method and conditions named. For some assays here: Binding can be weak; no strength is given. Tags and fused reporters may be left off the sequences shown.

Experiment [1] concerns the target T1, Ser37Ala/Thr64Ala-FAM122A-GFP (human) (UniProt Q96E09).
T1 sequence (chain, phosphoSer62 after forskolin, likely by PKA (the paper's conclusion)): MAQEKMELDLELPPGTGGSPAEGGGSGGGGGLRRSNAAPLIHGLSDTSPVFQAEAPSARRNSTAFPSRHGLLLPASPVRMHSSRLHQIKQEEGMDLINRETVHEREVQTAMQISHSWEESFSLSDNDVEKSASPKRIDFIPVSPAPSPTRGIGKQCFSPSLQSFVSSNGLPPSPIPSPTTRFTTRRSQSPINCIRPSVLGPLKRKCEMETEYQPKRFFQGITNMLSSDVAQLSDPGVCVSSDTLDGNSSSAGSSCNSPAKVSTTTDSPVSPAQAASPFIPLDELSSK
Briefly: condition: only cells pre-treated with H89 (30 µM for 30 min) before forskolin; far-Western, overlay or dot blot; HEK293 cells serum starved 10 h, pre-treated with H89 (30 µM, 30 min), then forskolin (20 µM, 30 min); immunoprecipitated GFP-tagged protein probed with 14-3-3s (overlay); both purified.

In experiment [2] the target is T1, Ser37Ala/Thr64Ala-FAM122A-GFP (human). Briefly: far-Western, overlay or dot blot; GFP-tagged proteins isolated with GFP-Trap from lysates of transfected HEK293 cells and probed with 14-3-3s (overlay); cells in medium with 10% serum, with or without 100 nM calyculin A; in Fig. 2D serum starved 10 h, then serum (10%, 30 min) or forskolin (20 µM, 30 min); both purified.

For “14-3-3s used as the probe in Far-Western overlays”, the values for the binding result in experiment [1] and in experiment [2] were “no binding” and “binds”, respectively.
